No constants are given. Whether binding was seen depends on the method and setting. Some binding calls cover weakened binding; strength is not graded here.
Biological target: mouse TRAIL expressed on transiently transfected 293T cells (mouse) (UniProt P50592)
Test: flow cytometry on 293T cells transfected with mouse TRAIL

By UniProt entry, the sequences of proteins in these tests, tags left out. Residues count along the entry.
UniProt P50592: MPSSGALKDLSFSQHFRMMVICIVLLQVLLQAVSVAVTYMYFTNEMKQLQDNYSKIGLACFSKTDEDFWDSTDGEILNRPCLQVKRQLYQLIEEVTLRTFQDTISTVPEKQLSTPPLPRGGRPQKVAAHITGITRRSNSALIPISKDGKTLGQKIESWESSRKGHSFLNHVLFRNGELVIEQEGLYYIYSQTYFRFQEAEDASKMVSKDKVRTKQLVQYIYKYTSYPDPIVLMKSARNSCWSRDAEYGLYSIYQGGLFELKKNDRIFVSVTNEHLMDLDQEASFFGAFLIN
UniProt O14763, residues 56-210: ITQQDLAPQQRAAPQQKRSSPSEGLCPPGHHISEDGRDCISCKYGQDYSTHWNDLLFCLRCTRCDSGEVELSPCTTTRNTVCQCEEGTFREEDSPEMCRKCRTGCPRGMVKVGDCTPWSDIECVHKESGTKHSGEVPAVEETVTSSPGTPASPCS

With “human TRAIL-R2:Fc (extracellular domain of human TRAIL-R2 fused to human IgG constant domain), as used in FIG. 9 (from UniProt O14763 56-210) (Fc fusion)” the binding was “binds”.
